# Results from PubChem BioAssay AID2718 (Broad Institute, 2010).
# Amino acid sequences for entries named in this document (tags omitted).
# UniProt O15379, whole entry, looked up: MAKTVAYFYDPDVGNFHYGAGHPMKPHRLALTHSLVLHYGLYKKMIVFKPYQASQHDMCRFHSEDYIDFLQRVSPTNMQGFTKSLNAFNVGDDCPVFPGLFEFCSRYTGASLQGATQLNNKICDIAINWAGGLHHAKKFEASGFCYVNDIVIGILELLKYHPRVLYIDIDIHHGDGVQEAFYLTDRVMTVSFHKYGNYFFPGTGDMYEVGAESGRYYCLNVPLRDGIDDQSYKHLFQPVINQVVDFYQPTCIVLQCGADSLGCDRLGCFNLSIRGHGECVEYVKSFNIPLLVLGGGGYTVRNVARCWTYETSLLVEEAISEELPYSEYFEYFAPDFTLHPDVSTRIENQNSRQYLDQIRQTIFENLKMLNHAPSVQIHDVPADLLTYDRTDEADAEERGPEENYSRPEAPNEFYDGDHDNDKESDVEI
# Hit rate of the full screen: of about 320,000 compounds, about 480 (0.15%) were called active. Inconclusive results, whose numbers are uncertain, are shown with a selection of clear calls. Cut-off read from the data, not from the text of the source: active = inhibition above about 26% (passing the limit was not always enough); inconclusive = no clear call, values can overlap the other calls.
# Biological target: Histone deacetylase 3 (Homo sapiens) (UniProt O15379)
# Assay: HDAC3 deacetylase inhibitors, primary screen, biochemical, fluorescence, cell-free homogeneous (AID 2718)
# Settings: recombinant HDAC3, fluorogenic peptide/trypsin coupled, at 8.3 µM, stronger effect = higher value
row,SMILES,inhibition
1,O=C(Nc1cccc2cccnc12)c1ccc(Br)o1,inconclusive: 21.6%
2,O=C(Nc1ccc(-c2cn3ccsc3n2)cc1)C1CCCC1,inconclusive: 19.1%
3,CC(=O)c1ccc(NC(=O)c2cnn3ccccc23)cc1,inconclusive: 24.7%
4,Cc1cccc(C)c1OCc1cc(C(=O)N2CCN3CCCC3C2)no1 (stereo unspecified),inconclusive: 45.8%
5,C/C(=N/OC(=O)C1CC1c1ccccc1)c1ccccc1 (stereo unspecified),inconclusive: 17.9%
6,O=[N+]([O-])c1cc(C(F)(F)F)ccc1NCCNC(=S)Nc1ccc(Cl)cc1,inconclusive: 24.9%
7,Cc1ccc(S(=O)(=O)N2CCN(c3ccc(C(F)(F)F)cc3[N+](=O)[O-])CC2)cc1,inactive: 1.02%
8,Cc1cc(Cl)ccc1OCC(=O)OCC(=O)Nc1ccc(F)c([N+](=O)[O-])c1,inconclusive: 12.5%
9,O=S1(=O)C=C(Oc2ccc3ccccc3c2)c2ccccc21,inactive: -1.23%
10,Cn1c(NC2CCCCC2)cc(=O)n(C)c1=O,inconclusive: 10.5%
11,CS(=O)(=O)c1ccc(NS(=O)(=O)c2ccc3ccccc3c2)cc1,inconclusive: 24.2%
12,NS(=O)(=O)c1ccc(N=NN2CCCCC2)cc1,inconclusive: 16.2%
13,O=C(O)C(Cc1ccccc1)NS(=O)(=O)c1ccc2c(c1)OCCO2 (stereo unspecified),inconclusive: 8.4%
14,CCOC(CNC(=O)C(=O)Nc1cc2c3c(c1)CCN3C(=O)CC2)OCC,inactive: -5.23%
15,CNC(=O)COC(=O)COc1ccc2c(C)cc(=O)oc2c1,inactive: -11.2%
16,CCOC(=O)C1=C(c2ccccc2)O/C(=C(\C(=O)OC)C(F)(F)F)S1,inconclusive: 24.5%
17,Cc1cccc(C)c1NC(=O)CN(C)C(=O)c1cccc(NS(=O)(=O)c2ccccc2)c1,inactive: 2.4%
18,COc1ccc(C(=O)COC(=O)C2CCCN2C(=O)C23CC4CC(CC(C4)C2)C3)cc1 (stereo unspecified),inconclusive: 18.7%
19,Cc1ccc(NC(=O)C23CCC(C)(C(=O)[C@H]2Br)C3(C)C)cc1 (stereo partly specified),inconclusive: 19.1%

row,SMILES,inhibition
1,O=C(NCCN1CCN(S(=O)(=O)c2ccc(F)cc2)CC1)C(=O)NCc1ccccc1,inconclusive: 11.1%
2,COCCCNc1nc2ccccc2[nH]c1=O,inconclusive: 12.8%
3,COc1ccc(S(=O)(=O)N2CCCCC2)cc1NC(=O)c1ccc(N2CCCC2=O)cc1,inconclusive: 17.6%
4,Cc1ccc(-n2c(CNC(=O)c3cccs3)nnc2SCC(=O)NO)cc1,active: 53.3%
5,CC[C@@H](C)[C@H](CNC)NC[C@@H](Cc1cccc2ccccc12)NCCc1cccc(C(F)(F)F)c1,inactive: 9.61%
6,CSc1nc(-c2ccco2)nn1C(=O)c1ccc(C)cc1,inconclusive: 28.7%
7,CCN1CCN(C(=S)Nc2cccc([N+](=O)[O-])c2)CC1,inconclusive: 17.2%
8,O=C(NC1CCCCC1)N1CCN(c2ccc(Cl)cc2)CC1,inactive: 1.59%
9,O=C(CCc1nnc(CCCc2ccccc2)o1)NCC(F)(F)F,inactive: -6.21%
10,CCN1C(=O)[C@H]2[C@@H](c3ccc(-c4cccc(Cl)c4)cc3)N[C@@](CC(C)C)(C(=O)OC)[C@H]2C1=O,inconclusive: 20.9%
11,CCOC(=O)c1ccc(N2CSC3=C(C#N)C(c4cccs4)CC(=O)N3C2)cc1 (stereo unspecified),active: 31.1%
12,CCCCCCc1cc2cc(C(=O)Nc3ccccc3OC)c(=O)oc2cc1O,inconclusive: 19.4%
13,O=C(Nc1ccc(Br)cn1)c1cccc(C(=O)Nc2ccc(Br)cn2)c1,inconclusive: 17.6%
14,C/C(=N\NC(=O)c1ccc(OC2OCCOC2Oc2ccc(C(=O)N/N=C(\C)c3ccncc3)cc2)cc1)c1ccncc1 (stereo unspecified),inconclusive: 11.7%
15,CC(=O)Nc1cc(-c2nn(CC(=O)N3CCCCC3)c(=O)c3ccccc23)ccc1N1CCOCC1,inconclusive: 32.4%
16,Cc1cc(C)c(S(=O)(=O)/N=C2/C=C(Sc3ncn[nH]3)C(=O)c3ccccc32)cc1C,active: 40.3%
17,COc1ccc(S(=O)(=O)n2nc(OC(=O)C3CCCCC3)cc2N)cc1,inconclusive: 17.8%
18,O=c1c2ccccc2nnn1Cc1ccc2ccccc2c1,inactive: 3.43%
19,CCCn1c(SCC(=O)NCc2ccc(F)cc2)n[nH]c1=O,inconclusive: 10.9%

row,SMILES,inhibition
1,NC(=O)CSc1nnc(-c2ccc([N+](=O)[O-])cc2)o1,inactive: -3.31%
2,CSc1nsc(SCC(=O)Nc2ccc(NC(C)=O)cc2)n1,inactive: 4.17%
3,CN(C)S(=O)(=O)c1cccc(C(=O)OCC(=O)Nc2sccc2C#N)c1,inconclusive: 29%
4,CN(C)N=C1c2cc(S(=O)(=O)N(C)C)ccc2-c2ccc(S(=O)(=O)N(C)C)cc21,inconclusive: 12.2%
5,COc1ccc([C@H]2CC(=O)C=C(c3ccc(OC(F)(F)F)cc3)C2)cc1OC,inconclusive: 19.9%
6,Nc1ncc(Br)cc1S(=O)(=O)NC1CCCCC1,inactive: 3.87%
7,CC(Nc1nc(-c2cccc(Br)c2)cs1)c1nc2cc(Cl)c(N3CCCCC3)cc2n1CCOCCO (stereo unspecified),inconclusive: 17.6%
8,Cc1nc2nc[nH]n2c(=O)c1CCOC(=O)c1ccccc1F,inactive: 1.22%
9,O=c1c2ccccc2sn1-c1ccccc1,active: 49.1%
10,COCCNc1nc(=S)[nH]c2cc(OC)c(OC)cc12,inconclusive: 26.3%
11,COc1ccc(N2CCN(S(=O)(=O)c3ccc4c(c3)CCCC4)CC2)c([N+](=O)[O-])c1,inconclusive: 18.8%
12,NS(=O)(=O)c1ccc(-c2cccc(/C=C3\SC(=O)NC3=O)c2)cc1,inconclusive: 16.2%
13,CCC(CC)C(=O)c1c[nH]c(C(=O)NCCCN2CCOCC2)c1,inactive: 0.198%
14,COc1ccc(/C=C/c2noc(-c3ccccc3O)n2)cc1,inactive: 0.0812%
15,NC(=O)Cc1ccc(Nc2nnc(-c3ccc(O)cc3)c3ccccc23)cc1,inconclusive: 19.2%
16,CCOC(=O)c1c(NC(=O)OC)sc(C(=O)N(CC)CC)c1C,inactive: 1.63%
17,Cn1c(=O)[nH]c(=O)c2c1nc(SCC(=O)O)n2CCOc1ccccc1,inconclusive: 10.1%
18,CN(C(=O)COc1ncnc2ccccc12)C1CCCCC1,inactive: -5.22%

# Molecules listed so far containing a COOH group:
row,SMILES,inhibition
13,O=C(O)C(Cc1ccccc1)NS(=O)(=O)c1ccc2c(c1)OCCO2 (stereo unspecified),inconclusive: 8.4%
17,Cn1c(=O)[nH]c(=O)c2c1nc(SCC(=O)O)n2CCOc1ccccc1,inconclusive: 10.1%
